Reference: PubChem BioAssay AID2549 (National Center for Advancing Translational Sciences (NCATS), 2010)
Out of some 240,000 compounds screened, about 1,300 (0.54%) were called active. The inconclusive results got no clear call from the source; some entries with a clear call stand among them for comparison. The call rests on the fitted dose curve; in most records, active means well fitted inhibition curve with a large enough effect; inconclusive means small, poorly fitted or top-dose-only effect; inactive means flat fitted curve, though single readings scatter. Where the call is inconclusive, the potency comes from a doubtful curve fit.

The chains behind the UniProt entries cited, without tags or fusion partners. Where a name states a change or a piece, a line headed by the entry shows the natural chain unless it says otherwise.
UniProt P46063: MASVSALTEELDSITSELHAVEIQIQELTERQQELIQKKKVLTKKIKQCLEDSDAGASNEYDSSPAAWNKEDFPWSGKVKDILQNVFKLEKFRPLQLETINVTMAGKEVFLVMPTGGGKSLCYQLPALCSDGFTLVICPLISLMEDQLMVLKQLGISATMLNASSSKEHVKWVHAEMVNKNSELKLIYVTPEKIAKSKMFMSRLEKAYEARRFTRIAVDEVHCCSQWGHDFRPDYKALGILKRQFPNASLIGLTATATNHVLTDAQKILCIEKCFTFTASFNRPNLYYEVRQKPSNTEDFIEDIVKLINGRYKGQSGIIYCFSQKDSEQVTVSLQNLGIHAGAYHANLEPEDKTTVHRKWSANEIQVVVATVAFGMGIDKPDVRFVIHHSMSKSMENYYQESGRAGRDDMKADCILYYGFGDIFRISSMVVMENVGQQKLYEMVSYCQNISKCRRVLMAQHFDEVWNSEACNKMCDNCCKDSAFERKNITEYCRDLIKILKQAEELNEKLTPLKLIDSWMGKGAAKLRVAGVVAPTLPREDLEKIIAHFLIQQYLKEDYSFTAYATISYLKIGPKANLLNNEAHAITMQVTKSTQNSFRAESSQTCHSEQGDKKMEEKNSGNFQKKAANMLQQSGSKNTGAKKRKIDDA

The compounds below were run against ATP-dependent DNA helicase Q1 (Homo sapiens) (UniProt P46063) (assay: qHTS Assay for Inhibitors of RecQ-Like Dna Helicase 1 (RECQ1)). Settings: RECQ1 DNA unwinding, red fluorescence kinetic read; activity, negative = inhibition: at 57.3 µM (top of the series); series mostly up to 57.3 µM.
In short: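 50 nM RECQ1T1 preincubated 15 min with compound in Tris pH 8.0 buffer with MgCl2, DTT, Tween-20 and 2.5 ug/ml poly(dI-dC); started with 200 nM TAMRA/BHQ-2 forked duplex and 2 mM ATP. Unwinding read as fluorescence (525/598 nm), two reads 2 h apart.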
Further: nearly all actives have a fitted effect of over 30% in size.
Potency means the concentration at half of the fitted maximal effect.
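Wherever activity, negative = inhibition is given: plate controls were vehicle for no effect and no enzyme for full effect.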

Row | Compound | activity, negative = inhibition | Potency | outcome
1 | COc1ccc(C2CC(=O)c3c(O)cc(O)cc3O2)cc1O (stereo not drawn) | inactive: -10.4% |  | 
2 | O=C(CN1CCN(c2ccccc2F)CC1)NC(=O)NCc1ccco1 |  | inconclusive: 25.1 µM [inhibitor, partial curve, poor fit] | 
3 | CCOc1ccccc1NC(=O)CN(C)S(=O)(=O)c1cccc2nsnc12 | inactive: -2.67% |  | 
4 | O=C1OC(=O)c2ccccc21 | inactive: 12.7% |  | 
5 | OCc1cccc(Cl)c1Cl | inactive: 1.3% |  | 
6 | COc1ccc(O)c(C(=O)C2c3ccccc3C(=O)N2c2ccc(C)cc2)c1 (stereo not drawn) |  |  | inactive
7 | Cc1nn2c(COc3ccc(NC(=O)C(C)C)cc3)nnc2c2ccccc12 |  | inconclusive: 35.5 µM [inhibitor, single point] | 
8 | S=C(S)O[C@@H]1C[C@@H]2C[C@H]1[C@@H]1CCC[C@H]21 | inactive: -20.2% |  | 
9 | Cc1cc(C(=O)OCC(=O)c2cccc([N+](=O)[O-])c2)c2cccc(C)c2n1 |  | inconclusive: 39.8 µM [inhibitor, single point] | 
10 | COc1ccc(C2C(C(=O)c3ccccc3)=C(C)Nc3nc4ccccc4n32)c(OC)c1 (stereo not drawn) |  | inconclusive: 0.126 µM [inhibitor, full curve, poor fit] | 
11 | COCCNc1nc(-c2ccccc2)nc2ccccc12 | inactive: -1.14% |  | 
12 | Cc1nnc(SCC(=O)N2N=C(c3ccc(Cl)cc3)CC2c2ccco2)[nH]c1=O (stereo not drawn) |  | active: 31.6 µM | 
13 | Cc1cc(C)n2nc(SCc3cc(=O)oc4cc(O)ccc34)nc2n1 |  | inconclusive: 10 µM [inhibitor, partial curve, poor fit] | 
14 | Cc1ccc(N2C(=O)c3cccc4c(N)ccc(c34)C2=O)c2cccnc12 |  | inconclusive: 15.8 µM [inhibitor, partial curve] | 
15 | Fc1ccccc1COc1ccc(-c2nnn(Cc3ccccc3F)n2)cc1 |  | inconclusive: 28.2 µM [inhibitor, single point] | 
16 | O=C(CSc1ccccc1F)NC(=O)NCc1ccco1 |  | active: 25.1 µM | 
17 | Nc1ncnc2c1ncn2[C@@H]1O[C@H](COP(=O)(O)OP(=O)(O)CP(=O)(O)O)[C@@H](O)[C@H]1O | inactive: 6.04% |  | 
18 | CO[C@H]1COC(=O)[C@@H](CCSC)NC(=O)C/C=C\[C@@H](C)[C@H](OC)COC(=O)[C@@H](OCc2ccccc2)/C=C\[C@@H]1C |  |  | inactive [at 11.5 µM]
19 | Clc1ccccc1OCc1nnc(-c2ccccc2Br)o1 |  |  | inactive
20 | Cn1c(CNc2ccccn2)c(C#N)c2ccccc21 |  | inconclusive: 0.282 µM [inhibitor, full curve] | 
21 | O=C(Nc1cc(SCC(O)CO)cc([N+](=O)[O-])c1)c1ccc(-n2cnnn2)cc1 (stereo not drawn) | inactive: 0.0988% |  | 
22 | COc1ccc(S(=O)(=O)NCCCC(=O)Nc2ccc(Sc3ccc(N)cc3)cc2)cc1 | inactive: -5.36% |  | 
23 | Cn1cnc([N+](=O)[O-])c1S(=O)(=O)c1ccc(Cl)cc1 | inactive: -9.81% |  | 

Reformatted: entries from further up.
Row,Compound,"activity, negative = inhibition",Potency,outcome
3,CCOc1ccccc1NC(=O)CN(C)S(=O)(=O)c1cccc2nsnc12,inactive: -2.67%,,
4,O=C1OC(=O)c2ccccc21,inactive: 12.7%,,
5,OCc1cccc(Cl)c1Cl,inactive: 1.3%,,
6,COc1ccc(O)c(C(=O)C2c3ccccc3C(=O)N2c2ccc(C)cc2)c1 (stereo not drawn),,,inactive
7,Cc1nn2c(COc3ccc(NC(=O)C(C)C)cc3)nnc2c2ccccc12,,"inconclusive: 35.5 µM [inhibitor, single point]",
8,S=C(S)O[C@@H]1C[C@@H]2C[C@H]1[C@@H]1CCC[C@H]21,inactive: -20.2%,,
9,Cc1cc(C(=O)OCC(=O)c2cccc([N+](=O)[O-])c2)c2cccc(C)c2n1,,"inconclusive: 39.8 µM [inhibitor, single point]",
10,COc1ccc(C2C(C(=O)c3ccccc3)=C(C)Nc3nc4ccccc4n32)c(OC)c1 (stereo not drawn),,"inconclusive: 0.126 µM [inhibitor, full curve, poor fit]",
11,COCCNc1nc(-c2ccccc2)nc2ccccc12,inactive: -1.14%,,
12,Cc1nnc(SCC(=O)N2N=C(c3ccc(Cl)cc3)CC2c2ccco2)[nH]c1=O (stereo not drawn),,active: 31.6 µM,
13,Cc1cc(C)n2nc(SCc3cc(=O)oc4cc(O)ccc34)nc2n1,,"inconclusive: 10 µM [inhibitor, partial curve, poor fit]",
14,Cc1ccc(N2C(=O)c3cccc4c(N)ccc(c34)C2=O)c2cccnc12,,"inconclusive: 15.8 µM [inhibitor, partial curve]",
15,Fc1ccccc1COc1ccc(-c2nnn(Cc3ccccc3F)n2)cc1,,"inconclusive: 28.2 µM [inhibitor, single point]",
16,O=C(CSc1ccccc1F)NC(=O)NCc1ccco1,,active: 25.1 µM,
17,Nc1ncnc2c1ncn2[C@@H]1O[C@H](COP(=O)(O)OP(=O)(O)CP(=O)(O)O)[C@@H](O)[C@H]1O,inactive: 6.04%,,
18,CO[C@H]1COC(=O)[C@@H](CCSC)NC(=O)C/C=C\[C@@H](C)[C@H](OC)COC(=O)[C@@H](OCc2ccccc2)/C=C\[C@@H]1C,,,inactive [at 11.5 µM]

Continued:

Row | Compound | activity, negative = inhibition | Potency | outcome
24 | Cc1cc(N2CCCC2)ccc1/C=N/n1cnnc1 |  | inconclusive: 39.8 µM [inhibitor, single point] | 
25 | Cc1cccc(C)c1NC(=O)CSc1nnc(-c2ccco2)c(-c2ccco2)n1 |  | active: 14.1 µM | 
26 | O=C(COc1ccc(/C=C\[N+](=O)[O-])cc1)N1CCOCC1 |  | active: 31.6 µM | 
27 | COc1cccc(=O)c2c(C)n(C)c(C)c12 |  | inconclusive: 39.8 µM [inhibitor, single point] | 
28 | CC(/C=N/n1c(-c2cccnc2)n[nH]c1=S)=C\c1ccco1 |  | inconclusive: 39.8 µM [inhibitor, single point] | 
29 | CCC(c1nnnn1Cc1ccco1)N(Cc1cc2cc(C)cc(C)c2[nH]c1=O)CC1CCCO1 (stereo not drawn) |  | inconclusive: 31.6 µM [inhibitor, single point] | 
30 | CCn1cc(C(=O)OC(C)C(=O)Nc2c(C)n(C)n(-c3ccccc3)c2=O)c(=O)c2ccc(C)nc21 (stereo not drawn) |  |  | inactive
31 | Cc1ccc(/C=N/NC(=O)c2ccccc2OCc2cccc(Br)c2)o1 |  | inconclusive: 4.47 µM [inhibitor, partial curve] | 
32 | Cc1ccc(S(=O)(=O)/N=C2/NC(=O)/C(=C/c3ccc(Br)o3)S2)cc1 |  | inconclusive: 39.8 µM [inhibitor, single point] | 
33 | Cc1cc(C)c(C#N)c(N2CCCC2)n1 |  | inconclusive: 8.91 µM [inhibitor, single point] | 
34 | COc1cc(C2NC(=S)NC(c3ccccc3)=C2C(C)=O)cc(Cl)c1OCC(=O)O (stereo not drawn) | inconclusive: -30.2% [inhibitor] |  | 
35 | CC1(OC(=O)CCc2ccccc2)C(=O)C=C2C=C(c3ccsc3)OC=C2C1=O (stereo not drawn) |  | inconclusive: 35.5 µM [inhibitor, single point] | 
36 | C/C(N)=C(/C#N)C(=O)CSc1nn(-c2ccc(Cl)cc2)c(=S)s1 |  | inconclusive: 25.1 µM [inhibitor, single point] | 
37 | O=C(CC1OC(=O)c2ccccc21)NC1CCCCC1 (stereo not drawn) |  | inconclusive: 0.199 µM [inhibitor, full curve, poor fit] | 
38 | c1ccc(N2CCN(c3nc(-c4cccs4)nc4ccccc34)CC2)cc1 | inactive: -4.19% |  | 
39 | O=C(NC(=S)Nc1ccccc1C(=O)O)c1ccc2ccccc2c1 | inactive: -10.8% |  | 
40 | CCOc1cc(/C=C2/SC(=S)N(CC(=O)O)C2=O)ccc1OC(=O)c1cccs1 |  | inconclusive: 39.8 µM [inhibitor, single point] | 
41 | NC(=O)Nn1c(CCC(=O)O)ccc1-c1ccc(Br)cc1 |  | inconclusive: 0.141 µM [inhibitor, full curve] | 
42 | O=C(COC(=O)c1ccccn1)Nc1ccc(S(=O)(=O)N2CCOCC2)cc1 |  | inconclusive: 8.91 µM [inhibitor, single point] | 
43 | CCCCOC(=O)c1ccc(NC(C)=O)cc1 |  | inconclusive: 7.08 µM [inhibitor, single point] | 
44 | Cn1cc([N+](=O)[O-])c(C(=O)Nc2ccc(C(=O)N3CCCCC3)cc2)n1 |  | inconclusive: 3.98 µM [inhibitor, partial curve] | 
45 | Cc1cc[n+](-c2[nH]c(=O)sc2/C=N/NC([S-])=Nc2ccccc2)cc1 |  | inconclusive: 39.8 µM [inhibitor, single point] | 
46 | COCc1cc(C)nc(OCC(=O)N/N=C/c2ccc(O)cc2O)c1C#N | inactive: -4.06% |  | 

Single records, from the list above:
O=C(CC1OC(=O)c2ccccc21)NC1CCCCC1 (stereo not drawn) as listed: Potency: inconclusive: 0.199 µM [inhibitor, full curve, poor fit]
COCCNc1nc(-c2ccccc2)nc2ccccc12 as listed: activity, negative = inhibition: inactive: -1.14%

Later entries

Row | Compound | activity, negative = inhibition | Potency | outcome
47 | O=C(Nc1ccc(Cc2ccncc2)cc1)c1cc([N+](=O)[O-])ccc1N1CCOCC1 |  |  | inactive
48 | C=CCN1C(=O)CS/C1=N\S(=O)(=O)c1ccc(Cl)cc1 |  | inconclusive: 39.8 µM [inhibitor, single point] | 
49 | CO[C@@H]1COC(=O)C/C=C\[C@H](C)COC(=O)[C@H](C)NC(=O)C/C=C\[C@H]1C |  |  | inactive [at 11.5 µM]
50 | Cc1c(C(=O)N2CC(C)OC(C)C2)oc2ccccc12 (stereo not drawn) |  | inconclusive: 3.98 µM [inhibitor, partial curve] | 
51 | Cc1ccc(NC2=C(C(=O)c3ccccc3)N(C)S(=O)(=O)c3ccccc32)cc1 |  | inconclusive: 7.94 µM [inhibitor, partial curve] | 
52 | Cc1ccc(N(Cc2cc3ccccc3[nH]c2=O)C(=O)c2ccco2)c(C)c1 |  | inconclusive: 0.891 µM [inhibitor, full curve, poor fit] | 
53 | O=C1/C(=C\c2ccco2)SC(=S)N1C1CCS(=O)(=O)C1 (stereo not drawn) |  | inconclusive: 28.2 µM [inhibitor, single point] | 
54 | O=C(CSc1nc2ccccc2o1)Nc1nncs1 |  | inconclusive: 0.0562 µM [inhibitor, full curve, poor fit] | 
55 | Cc1nn(C)cc1N1C(=O)c2cccc3c(N)ccc(c23)C1=O |  | inconclusive: 20 µM [inhibitor, single point] | 
56 | Cc1nnc2ccc(-c3cccc(NC(=O)Cc4cccs4)c3)nn12 |  | inconclusive: 35.5 µM [inhibitor, single point] | 
57 | COC(=O)c1cnn2c(C)c(Cc3cccc(F)c3)c(C)nc12 | inactive: -0.0455% |  | 
58 | CC1(OC(=O)c2ccc(Cl)nc2)C(=O)C=C2C=C(C3CC3)OC=C2C1=O (stereo not drawn) |  | inconclusive: 22.4 µM [inhibitor, single point] | 
59 | COC(=O)c1sccc1NC(=S)NCc1ccc(Cl)cc1 |  | inconclusive: 25.1 µM [inhibitor, single point] | 
60 | CC(C)[C@H](NC(=O)c1ccco1)C(=O)OCc1cc(=O)n2c(n1)sc1ccccc12 |  | inconclusive: 39.8 µM [inhibitor, single point] | 
61 | CC1CCCCN1C(=O)CCS(=O)(=O)c1cccc2nonc12 (stereo not drawn) |  | inconclusive: 5.62 µM [inhibitor, single point] | 
62 | H-DMHDFFPGLM-NH2 |  | active: 11.2 µM | 
63 | O=C(O)CC/C(=C\c1cccc(NC(=O)c2ccccc2Cl)c1)c1nc2ccccc2s1 |  | inconclusive: 28.2 µM [inhibitor, single point] | 
64 | Cc1cc(O)c2c(c1O)C(=O)C(O)=C(O)C2=O |  | active: 10 µM | 
65 | CC[C@H](C)[C@H](NC(=O)[C@H](CC(=O)O)NC(=O)[C@H](CC(C)C)NC(=O)[C@H](Cc1cnc[nH]1)NC(=O)[C@H](C)NC(=O)[C@H](Cc1ccccc1)NC(=O)[C@H](Cc1ccc(O)cc1)NC(=O)[C@@H](NC(=O)[C@H](C)NC(=O)[C@H](CCC(=O)O)NC(=O)[C@H](CCC(=O)O)NC(=O)[C@H](CC(=O)O)NC(=O)CCC(=O)O)C(C)C)C(=O)N[C@H](C(=O)N[C@@H](Cc1c[nH]c2ccccc12)C(=O)O)[C@@H](C)CC | inactive: -19.8% |  | 
66 | C=C1c2c(Cl)ccc(O)c2C(O)=C2C(=O)[C@]3(O)C(O)=C(C(N)=O)C(=O)C(N(C)C)C3C(O)C12 (stereo partly drawn) |  | active: 3.98 µM | 
67 | Cc1nn2c(-c3ccncc3)nnc2c2ccccc12 |  | inconclusive: 0.562 µM [inhibitor, partial curve, poor fit] | 
68 | COc1ccc(CCn2c(O)cc3nn(-c4nc5ccccc5s4)c(=O)c-3c2C)cc1 |  | active: 25.1 µM | 
